Experimental data reported in the supplement of paper PMC10689618.
Structures can show the parent of a compound that is named as a salt. This is one part of the list. Repeats are few or missing, and single values can be far off.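 Primary human fetal astrocytes engulfed labelled rat cortical synaptosomes, measured as a red/green ratio corrected for calcein live-cell signal and scaled to the plate median. Toxicity meant calcein falling over 30%; decreased phagocytosis meant below 70% of median above 5 µM.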

System: Human fetal astrocytes
Experiment: loss of total cells relative to no-compound high-control median (toxicity); higher = more toxic (fewer cells)
Details: 22.22 µM; 24 h

Row | Compound | loss of total cells [%]
1 | O=[N+]([O-])c1cccc2c(Br)[nH]nc12 [3-Bromo-7-nitroindazole] | -10.9
2 | CCC(C)N(C)C(=O)c1cc2ccccc2c(-c2ccccc2Cl)n1 (stereo not drawn) | 3.4
3 | OC(CN1CCN(c2cccc(Cl)c2)CC1)C(c1ccccc1)c1ccccc1 (stereo not drawn) | 9.4
4 | CSC(=N)N [S-Methylisothiourea hemisulfate] | 5.6
5 | Cc1ccccc1N1C(=O)c2cc(S(N)(=O)=O)c(Cl)cc2NC1C (stereo not drawn) [Metolazone] | 13.1
6 | CC(C)(C)NCC(O)c1ccc(O)c(CO)c1 (stereo not drawn) [Albuterol hemisulfate] | -50.2
7 | C[C@]12CC[C@@H]3c4ccc(O)cc4CC[C@H]3[C@@H]1CCC2=O [Estrone] | -21.6
8 | Nc1nc2[nH]c(=O)cnc2c(=O)[nH]1 [Isoxanthopterin] | 11.2
9 | CC[N+](CC)(CC)CC [Tetraethylammonium chloride] | -29.6
10 | O=C(CCCN1CC=C(n2c(=O)[nH]c3ccccc32)CC1)c1ccc(F)cc1 [Droperidol] | -8
11 | CCn1c(=O)[nH]c2cc(Cl)c(Cl)cc21 | 9.6
12 | C=C[C@H]1CN2CC[C@H]1C[C@H]2[C@H](O)c1ccnc2ccc(OC)cc12 [Quinine sulfate] | -31.3
13 | CC(C)C(=O)Nc1ccc([N+](=O)[O-])c(C(F)(F)F)c1 [Flutamide] | -1.6
14 | NCCNC(=O)c1ccc(Cl)cc1 [Ro 16-6491 hydrochloride] | -13.2
15 | Cn1c(=O)c2[nH]c(-c3ccc(S(=O)(=O)O)cc3)nc2n(C)c1=O [8-(p-Sulfophenyl)theophylline] | -1.1
16 | CN(C(=O)CCCOc1ccc2[nH]c(=O)ccc2c1)C1CCCCC1 [Cilostamide] | 10.2
17 | Oc1ncnc2[nH]ncc12 [Allopurinol] | -1.9
18 | N=C(N)c1ccccc1 [Benzamidine hydrochloride] | -11.7
19 | COc1ccc(CCN(C)CCCC(C#N)(c2cc(OC)c(OC)c(OC)c2)C(C)C)cc1OC (racemic) [(±)-Methoxyverapamil hydrochloride] | 13.1
20 | O=[N+]([O-])c1cc2nc(O)c(O)nc2cc1[N+](=O)[O-] | 18.4

Row | Compound | loss of total cells [%]
21 | Nc1ncnc2c1nc(Br)n2C1OC2COP(=O)(O)O[C@@H]2C1O (stereo partly drawn) [8-Bromo-cAMP sodium] | 5.6
22 | CCOC(=O)C1=C(C)NC(C)=C(C(=O)OC)C1c1cccc([N+](=O)[O-])c1 (stereo not drawn) [Nitrendipine] | -6.5
23 | CC1(NC(=O)CBr)CCC(C(C)(C)NCC(O)COc2cccc3[nH]ccc23)CC1 (racemic) [(±)-Pindobind] | -26.3
24 | COc1ccc2c(c1)c(CC(=O)N1CCOCC1)c(C)n2C(=O)c1ccc(Cl)cc1 [Indomethacin morpholinylamide] | 12.1
25 | CO/N=C(\C(=O)N[C@@H]1C(=O)N2C(C(=O)O)=C(COC(C)=O)CS[C@H]12)c1csc(N)n1 [Cefotaxime sodium] | -18.4
26 | COc1cc(NS(C)(=O)=O)ccc1Nc1c2ccccc2nc2ccccc12 [Amsacrine hydrochloride] | 16.2
27 | OC(CN1CCC(Cc2ccc(F)cc2)CC1)c1ccc(Cl)cc1 (stereo not drawn) [Eliprodil] | 8.8
28 | CC(C)NC[C@@H](O)COc1ccc(CC(N)=O)cc1 [R(+)-Atenolol] | -11.7
29 | CNC(=O)c1cc2c(cn1)[nH]c1ccccc12 [N-Methyl-beta-carboline-3-carboxamide] | -10.4
30 | CN1CCC[C@@H]1c1cccnc1.Cc1ccc(C(=O)O[C@H](C(=O)O)[C@@H](OC(=O)c2ccc(C)cc2)C(=O)O)cc1 [(+)-Nicotine (+)-di-p-toluoyl tartrate] | 4.7
31 | O=C(O)c1cc(=O)c2c(Cl)cc(Cl)cc2[nH]1 [5,7-Dichlorokynurenic acid] | -7.2
32 | CNC(=O)[C@H]1O[C@@H](n2cnc3c(NCc4cccc(I)c4)ncnc32)[C@H](O)[C@@H]1O | 23.4
33 | Cn1ccc2cc3c(cc21)CCN3C(=O)Nc1cccnc1 | -4.9
34 | CC[C@H](NC(=O)c1c(C)c(-c2ccccc2)nc2ccccc12)c1ccccc1 | 2.6
35 | Oc1cc2c(c(Cl)c1O)CCNCC2c1ccccc1 (racemic) [(±)-6-Chloro-PB hydrobromide] | 4.1
36 | CCOC(=O)c1cnc2c(cnn2CC)c1NN=C(C)C [Etazolate hydrochloride] | -8.8
37 | CC(C)=CCC/C(C)=C/CC/C(C)=C/CSc1ccccc1C(=O)O [Farnesylthiosalicylic acid] | 13.6
38 | CC(=O)NCCc1c[nH]c2ccc(O)cc12 [N-Acetyl-5-hydroxytryptamine] | 7.1
39 | O=c1[nH]c2cc(Cl)ccc2c(O)c1-c1cccc(Oc2ccccc2)c1 | 7.5

Random excerpt: four records from the list.
Row | Compound | loss of total cells [%]
23 | CC1(NC(=O)CBr)CCC(C(C)(C)NCC(O)COc2cccc3[nH]ccc23)CC1 (racemic) [(±)-Pindobind] | -26.3
26 | COc1cc(NS(C)(=O)=O)ccc1Nc1c2ccccc2nc2ccccc12 [Amsacrine hydrochloride] | 16.2
22 | CCOC(=O)C1=C(C)NC(C)=C(C(=O)OC)C1c1cccc([N+](=O)[O-])c1 (stereo not drawn) [Nitrendipine] | -6.5
32 | CNC(=O)[C@H]1O[C@@H](n2cnc3c(NCc4cccc(I)c4)ncnc32)[C@H](O)[C@@H]1O | 23.4

System: Human fetal astrocytes
Experiment: synaptosome phagocytosis (pHrodo/calcein intensity ratio) relative to plate median of data wells; higher = more phagocytosis
Details: 1.39 µM; 24 h

Row | Compound | synaptosome phagocytosis [%]
40 | O=[N+]([O-])c1cccc2c(Br)[nH]nc12 [3-Bromo-7-nitroindazole] | 157
41 | CCC(C)N(C)C(=O)c1cc2ccccc2c(-c2ccccc2Cl)n1 (stereo not drawn) | 86.1
42 | OC(CN1CCN(c2cccc(Cl)c2)CC1)C(c1ccccc1)c1ccccc1 (stereo not drawn) | 91.4
43 | CSC(=N)N [S-Methylisothiourea hemisulfate] | 95.2
44 | Cc1ccccc1N1C(=O)c2cc(S(N)(=O)=O)c(Cl)cc2NC1C (stereo not drawn) [Metolazone] | 120
45 | CC(C)(C)NCC(O)c1ccc(O)c(CO)c1 (stereo not drawn) [Albuterol hemisulfate] | 91.5
46 | C[C@]12CC[C@@H]3c4ccc(O)cc4CC[C@H]3[C@@H]1CCC2=O [Estrone] | 110
47 | Nc1nc2[nH]c(=O)cnc2c(=O)[nH]1 [Isoxanthopterin] | 98
48 | CC[N+](CC)(CC)CC [Tetraethylammonium chloride] | 130
49 | O=C(CCCN1CC=C(n2c(=O)[nH]c3ccccc32)CC1)c1ccc(F)cc1 [Droperidol] | 71.4
50 | CCn1c(=O)[nH]c2cc(Cl)c(Cl)cc21 | 79.6
51 | C=C[C@H]1CN2CC[C@H]1C[C@H]2[C@H](O)c1ccnc2ccc(OC)cc12 [Quinine sulfate] | 92.3
52 | CC(C)C(=O)Nc1ccc([N+](=O)[O-])c(C(F)(F)F)c1 [Flutamide] | 103
53 | NCCNC(=O)c1ccc(Cl)cc1 [Ro 16-6491 hydrochloride] | 97.2
54 | Cn1c(=O)c2[nH]c(-c3ccc(S(=O)(=O)O)cc3)nc2n(C)c1=O [8-(p-Sulfophenyl)theophylline] | 67.6
55 | CN(C(=O)CCCOc1ccc2[nH]c(=O)ccc2c1)C1CCCCC1 [Cilostamide] | 105
56 | Oc1ncnc2[nH]ncc12 [Allopurinol] | 141
57 | N=C(N)c1ccccc1 [Benzamidine hydrochloride] | 125
58 | COc1ccc(CCN(C)CCCC(C#N)(c2cc(OC)c(OC)c(OC)c2)C(C)C)cc1OC (racemic) [(±)-Methoxyverapamil hydrochloride] | 110
59 | O=[N+]([O-])c1cc2nc(O)c(O)nc2cc1[N+](=O)[O-] | 104

Row | Compound | synaptosome phagocytosis [%]
60 | Nc1ncnc2c1nc(Br)n2C1OC2COP(=O)(O)O[C@@H]2C1O (stereo partly drawn) [8-Bromo-cAMP sodium] | 115
61 | CCOC(=O)C1=C(C)NC(C)=C(C(=O)OC)C1c1cccc([N+](=O)[O-])c1 (stereo not drawn) [Nitrendipine] | 93.2
62 | CC1(NC(=O)CBr)CCC(C(C)(C)NCC(O)COc2cccc3[nH]ccc23)CC1 (racemic) [(±)-Pindobind] | 91.9
63 | COc1ccc2c(c1)c(CC(=O)N1CCOCC1)c(C)n2C(=O)c1ccc(Cl)cc1 [Indomethacin morpholinylamide] | 98.7
64 | CO/N=C(\C(=O)N[C@@H]1C(=O)N2C(C(=O)O)=C(COC(C)=O)CS[C@H]12)c1csc(N)n1 [Cefotaxime sodium] | 119
65 | COc1cc(NS(C)(=O)=O)ccc1Nc1c2ccccc2nc2ccccc12 [Amsacrine hydrochloride] | 107
66 | OC(CN1CCC(Cc2ccc(F)cc2)CC1)c1ccc(Cl)cc1 (stereo not drawn) [Eliprodil] | 66.7
67 | CC(C)NC[C@@H](O)COc1ccc(CC(N)=O)cc1 [R(+)-Atenolol] | 93
68 | CNC(=O)c1cc2c(cn1)[nH]c1ccccc12 [N-Methyl-beta-carboline-3-carboxamide] | 104
69 | CN1CCC[C@@H]1c1cccnc1.Cc1ccc(C(=O)O[C@H](C(=O)O)[C@@H](OC(=O)c2ccc(C)cc2)C(=O)O)cc1 [(+)-Nicotine (+)-di-p-toluoyl tartrate] | 97
70 | O=C(O)c1cc(=O)c2c(Cl)cc(Cl)cc2[nH]1 [5,7-Dichlorokynurenic acid] | 88.5
71 | CNC(=O)[C@H]1O[C@@H](n2cnc3c(NCc4cccc(I)c4)ncnc32)[C@H](O)[C@@H]1O | 84.3
72 | Cn1ccc2cc3c(cc21)CCN3C(=O)Nc1cccnc1 | 99.6
73 | CC[C@H](NC(=O)c1c(C)c(-c2ccccc2)nc2ccccc12)c1ccccc1 | 102
74 | Oc1cc2c(c(Cl)c1O)CCNCC2c1ccccc1 (racemic) [(±)-6-Chloro-PB hydrobromide] | 118
75 | CCOC(=O)c1cnc2c(cnn2CC)c1NN=C(C)C [Etazolate hydrochloride] | 69.9
76 | CC(C)=CCC/C(C)=C/CC/C(C)=C/CSc1ccccc1C(=O)O [Farnesylthiosalicylic acid] | 115
77 | CC(=O)NCCc1c[nH]c2ccc(O)cc12 [N-Acetyl-5-hydroxytryptamine] | 108
78 | O=c1[nH]c2cc(Cl)ccc2c(O)c1-c1cccc(Oc2ccccc2)c1 | 89.4
